Laboratory results published in PMC11612967.
These are yes or no findings as the source states them, for the method shown. For part of these data: Binding seen in cells or lysates may run through a third protein. Some results given as binding are weak or reduced against the parent protein; the word gives no strength.

Experiments:
[1] = molecular target: T1, S. cerevisiae Smc6 (S. cerevisiae) (UniProt Q12749); test: SEC; large scale, 1 liter E. coli culture; Smc6 with C-terminal Twin-Strep tag; StrepTrap, HiTrap Heparin, then Superose 6 Increase in 10 mM Tris-HCl pH 7.5, 300 mM NaCl; peak fractions by SDS-PAGE and LC-MS/MS
T1 sequence: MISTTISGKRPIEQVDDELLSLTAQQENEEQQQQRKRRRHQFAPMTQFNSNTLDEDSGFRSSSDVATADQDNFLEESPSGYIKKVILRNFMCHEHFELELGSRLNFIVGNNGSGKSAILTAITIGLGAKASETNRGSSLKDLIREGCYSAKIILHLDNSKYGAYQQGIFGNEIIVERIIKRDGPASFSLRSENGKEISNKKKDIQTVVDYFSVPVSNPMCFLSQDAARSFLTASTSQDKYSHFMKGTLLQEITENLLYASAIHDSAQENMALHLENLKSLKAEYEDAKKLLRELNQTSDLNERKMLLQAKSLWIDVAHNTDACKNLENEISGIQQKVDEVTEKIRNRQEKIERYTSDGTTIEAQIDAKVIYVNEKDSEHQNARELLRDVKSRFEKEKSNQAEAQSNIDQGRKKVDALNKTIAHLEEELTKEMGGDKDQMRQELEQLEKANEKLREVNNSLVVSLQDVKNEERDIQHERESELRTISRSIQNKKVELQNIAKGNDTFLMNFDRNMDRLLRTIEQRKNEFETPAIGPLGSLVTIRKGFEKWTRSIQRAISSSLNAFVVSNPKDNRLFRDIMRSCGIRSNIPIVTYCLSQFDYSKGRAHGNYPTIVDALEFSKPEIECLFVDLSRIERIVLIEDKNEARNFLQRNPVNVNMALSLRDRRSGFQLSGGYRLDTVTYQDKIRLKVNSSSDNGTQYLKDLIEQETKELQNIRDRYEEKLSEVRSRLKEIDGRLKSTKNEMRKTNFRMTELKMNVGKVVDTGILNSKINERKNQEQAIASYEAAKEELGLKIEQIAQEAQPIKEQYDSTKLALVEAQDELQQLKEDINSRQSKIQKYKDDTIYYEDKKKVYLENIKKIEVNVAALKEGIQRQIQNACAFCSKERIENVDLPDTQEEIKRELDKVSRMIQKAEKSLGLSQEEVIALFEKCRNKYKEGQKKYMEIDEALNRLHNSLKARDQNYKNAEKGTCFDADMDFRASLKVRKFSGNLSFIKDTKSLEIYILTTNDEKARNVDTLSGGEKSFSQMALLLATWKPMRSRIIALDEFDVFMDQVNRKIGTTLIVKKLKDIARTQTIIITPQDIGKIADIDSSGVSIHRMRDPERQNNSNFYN

[2] = molecular target: T2, S. cerevisiae Nse1 (S. cerevisiae) (UniProt Q07913); test: pull-down; S. cerevisiae Smc5/6 subunits co-expressed in E. coli Rosetta (DE3), one subunit with a Twin-Strep tag (N- or C-terminal); clarified lysate on Strep-Tactin Sepharose, 1 h at 4°C, 50 mM Tris-HCl pH 7.5, 300 mM NaCl, 5% glycerol; eluted with 2.5 mM desthiobiotin; Coomassie-stained SDS-PAGE
T2 sequence: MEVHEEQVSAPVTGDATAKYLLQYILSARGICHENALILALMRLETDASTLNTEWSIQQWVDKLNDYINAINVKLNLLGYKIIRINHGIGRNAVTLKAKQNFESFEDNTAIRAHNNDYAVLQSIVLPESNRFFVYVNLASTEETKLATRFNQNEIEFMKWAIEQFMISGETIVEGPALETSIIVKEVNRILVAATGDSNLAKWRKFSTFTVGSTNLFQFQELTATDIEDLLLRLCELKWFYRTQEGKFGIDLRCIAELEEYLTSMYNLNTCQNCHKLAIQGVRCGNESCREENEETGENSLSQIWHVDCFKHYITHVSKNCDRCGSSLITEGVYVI

[3] = molecular target: T3, S. cerevisiae Nse3 (S. cerevisiae) (UniProt Q05541); test: as above
T3 sequence: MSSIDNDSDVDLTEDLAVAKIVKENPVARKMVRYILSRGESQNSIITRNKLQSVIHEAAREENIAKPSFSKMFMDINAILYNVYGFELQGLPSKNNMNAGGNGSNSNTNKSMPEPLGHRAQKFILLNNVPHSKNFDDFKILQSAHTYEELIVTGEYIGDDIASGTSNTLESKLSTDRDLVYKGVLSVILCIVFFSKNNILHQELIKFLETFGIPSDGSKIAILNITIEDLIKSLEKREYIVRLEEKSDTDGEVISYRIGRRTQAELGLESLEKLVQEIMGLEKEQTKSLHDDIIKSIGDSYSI

[4] = molecular target: T4, S. cerevisiae Smc5 (S. cerevisiae) (UniProt Q08204); test: as above
T4 sequence: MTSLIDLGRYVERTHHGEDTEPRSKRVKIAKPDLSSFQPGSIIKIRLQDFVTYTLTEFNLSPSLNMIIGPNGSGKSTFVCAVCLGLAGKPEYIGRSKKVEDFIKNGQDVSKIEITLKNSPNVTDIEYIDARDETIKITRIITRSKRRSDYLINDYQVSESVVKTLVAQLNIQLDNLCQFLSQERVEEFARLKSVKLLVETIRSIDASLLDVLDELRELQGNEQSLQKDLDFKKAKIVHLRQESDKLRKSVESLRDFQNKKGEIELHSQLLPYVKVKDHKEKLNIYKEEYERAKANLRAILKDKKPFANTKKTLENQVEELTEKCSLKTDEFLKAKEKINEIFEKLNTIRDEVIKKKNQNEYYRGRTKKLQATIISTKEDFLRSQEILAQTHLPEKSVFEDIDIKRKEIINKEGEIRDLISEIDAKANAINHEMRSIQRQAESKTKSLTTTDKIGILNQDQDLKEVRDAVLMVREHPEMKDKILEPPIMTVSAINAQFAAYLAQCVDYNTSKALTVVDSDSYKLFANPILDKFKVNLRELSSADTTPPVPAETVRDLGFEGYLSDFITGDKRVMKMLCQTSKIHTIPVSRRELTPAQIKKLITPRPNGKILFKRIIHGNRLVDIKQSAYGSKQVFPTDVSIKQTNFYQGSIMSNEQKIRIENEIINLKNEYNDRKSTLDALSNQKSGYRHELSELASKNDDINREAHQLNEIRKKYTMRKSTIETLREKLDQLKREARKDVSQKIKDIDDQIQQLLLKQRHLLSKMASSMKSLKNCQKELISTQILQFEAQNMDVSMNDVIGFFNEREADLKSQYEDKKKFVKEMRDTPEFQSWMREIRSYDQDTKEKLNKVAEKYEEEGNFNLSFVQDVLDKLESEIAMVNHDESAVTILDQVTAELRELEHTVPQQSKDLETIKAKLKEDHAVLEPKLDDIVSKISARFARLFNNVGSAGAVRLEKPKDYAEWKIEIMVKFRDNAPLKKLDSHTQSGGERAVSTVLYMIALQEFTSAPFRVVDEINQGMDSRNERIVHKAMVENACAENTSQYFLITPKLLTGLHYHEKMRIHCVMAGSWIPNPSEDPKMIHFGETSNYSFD

[5] = molecular target: T1, S. cerevisiae Smc6 (S. cerevisiae); test: as above
[6] = molecular target: T5, S. cerevisiae Nse4 (S. cerevisiae) (UniProt P43124); test: as above
T5 sequence: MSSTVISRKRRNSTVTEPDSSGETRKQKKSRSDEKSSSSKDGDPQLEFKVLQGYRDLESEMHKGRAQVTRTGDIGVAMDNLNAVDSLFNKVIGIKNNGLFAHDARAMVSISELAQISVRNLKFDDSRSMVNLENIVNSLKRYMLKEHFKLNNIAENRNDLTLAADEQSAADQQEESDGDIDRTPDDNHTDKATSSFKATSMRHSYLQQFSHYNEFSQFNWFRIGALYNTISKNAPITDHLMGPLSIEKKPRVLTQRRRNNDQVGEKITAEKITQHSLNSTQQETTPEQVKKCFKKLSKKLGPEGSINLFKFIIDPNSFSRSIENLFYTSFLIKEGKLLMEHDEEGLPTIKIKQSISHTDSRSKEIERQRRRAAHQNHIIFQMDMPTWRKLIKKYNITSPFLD

Measured: binding

B1: S. cerevisiae Nse4 (protein, UniProt P43124 1-402)
chain: MSSTVISRKRRNSTVTEPDSSGETRKQKKSRSDEKSSSSKDGDPQLEFKVLQGYRDLESEMHKGRAQVTRTGDIGVAMDNLNAVDSLFNKVIGIKNNGLFAHDARAMVSISELAQISVRNLKFDDSRSMVNLENIVNSLKRYMLKEHFKLNNIAENRNDLTLAADEQSAADQQEESDGDIDRTPDDNHTDKATSSFKATSMRHSYLQQFSHYNEFSQFNWFRIGALYNTISKNAPITDHLMGPLSIEKKPRVLTQRRRNNDQVGEKITAEKITQHSLNSTQQETTPEQVKKCFKKLSKKLGPEGSINLFKFIIDPNSFSRSIENLFYTSFLIKEGKLLMEHDEEGLPTIKIKQSISHTDSRSKEIERQRRRAAHQNHIIFQMDMPTWRKLIKKYNITSPFLD
binds: [1] | [2] | [3] | [4] | [5]

B2: S. cerevisiae Nse1 (protein, UniProt Q07913 1-336)
chain: MEVHEEQVSAPVTGDATAKYLLQYILSARGICHENALILALMRLETDASTLNTEWSIQQWVDKLNDYINAINVKLNLLGYKIIRINHGIGRNAVTLKAKQNFESFEDNTAIRAHNNDYAVLQSIVLPESNRFFVYVNLASTEETKLATRFNQNEIEFMKWAIEQFMISGETIVEGPALETSIIVKEVNRILVAATGDSNLAKWRKFSTFTVGSTNLFQFQELTATDIEDLLLRLCELKWFYRTQEGKFGIDLRCIAELEEYLTSMYNLNTCQNCHKLAIQGVRCGNESCREENEETGENSLSQIWHVDCFKHYITHVSKNCDRCGSSLITEGVYVI
binds: [1] | [3] | [6] | [4] | [5]

B3: S. cerevisiae Nse3 (protein, UniProt Q05541 1-303)
chain: MSSIDNDSDVDLTEDLAVAKIVKENPVARKMVRYILSRGESQNSIITRNKLQSVIHEAAREENIAKPSFSKMFMDINAILYNVYGFELQGLPSKNNMNAGGNGSNSNTNKSMPEPLGHRAQKFILLNNVPHSKNFDDFKILQSAHTYEELIVTGEYIGDDIASGTSNTLESKLSTDRDLVYKGVLSVILCIVFFSKNNILHQELIKFLETFGIPSDGSKIAILNITIEDLIKSLEKREYIVRLEEKSDTDGEVISYRIGRRTQAELGLESLEKLVQEIMGLEKEQTKSLHDDIIKSIGDSYSI
binds: [1] | [2] | [6] | [4] | [5]
